# Experimental data: PMC4974575
# By UniProt entry, the sequences of proteins in these tests, tags left out. Residues count along the entry.
# UniProt P52800, residues 29-336: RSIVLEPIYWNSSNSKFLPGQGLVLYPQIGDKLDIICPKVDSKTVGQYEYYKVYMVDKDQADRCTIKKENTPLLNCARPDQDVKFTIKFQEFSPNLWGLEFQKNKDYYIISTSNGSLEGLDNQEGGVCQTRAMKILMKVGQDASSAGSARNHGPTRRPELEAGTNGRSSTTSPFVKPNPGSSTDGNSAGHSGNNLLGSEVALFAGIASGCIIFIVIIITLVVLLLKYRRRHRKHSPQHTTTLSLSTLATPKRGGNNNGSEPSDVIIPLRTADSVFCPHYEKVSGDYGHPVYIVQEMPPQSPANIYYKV
# UniProt P52799, residues 28-333: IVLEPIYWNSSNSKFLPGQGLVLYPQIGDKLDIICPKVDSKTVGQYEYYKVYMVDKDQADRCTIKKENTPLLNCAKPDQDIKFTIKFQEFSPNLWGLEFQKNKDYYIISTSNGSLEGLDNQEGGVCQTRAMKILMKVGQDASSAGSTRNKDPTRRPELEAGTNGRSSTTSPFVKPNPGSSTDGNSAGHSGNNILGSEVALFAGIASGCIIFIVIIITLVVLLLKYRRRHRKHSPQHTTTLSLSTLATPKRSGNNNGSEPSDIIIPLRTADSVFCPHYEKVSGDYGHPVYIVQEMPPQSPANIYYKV
# Results are given in words; binding and its absence hold for the method and conditions named. In cells and extracts the contact can be indirect. Some entries that bind do so weakly or less than the wild type. Sequences can lack the tags named with a protein.
# Biological target: T1, recombinant mouse EphB4-Fc (mouse) (UniProt P54761)
# T1 sequence: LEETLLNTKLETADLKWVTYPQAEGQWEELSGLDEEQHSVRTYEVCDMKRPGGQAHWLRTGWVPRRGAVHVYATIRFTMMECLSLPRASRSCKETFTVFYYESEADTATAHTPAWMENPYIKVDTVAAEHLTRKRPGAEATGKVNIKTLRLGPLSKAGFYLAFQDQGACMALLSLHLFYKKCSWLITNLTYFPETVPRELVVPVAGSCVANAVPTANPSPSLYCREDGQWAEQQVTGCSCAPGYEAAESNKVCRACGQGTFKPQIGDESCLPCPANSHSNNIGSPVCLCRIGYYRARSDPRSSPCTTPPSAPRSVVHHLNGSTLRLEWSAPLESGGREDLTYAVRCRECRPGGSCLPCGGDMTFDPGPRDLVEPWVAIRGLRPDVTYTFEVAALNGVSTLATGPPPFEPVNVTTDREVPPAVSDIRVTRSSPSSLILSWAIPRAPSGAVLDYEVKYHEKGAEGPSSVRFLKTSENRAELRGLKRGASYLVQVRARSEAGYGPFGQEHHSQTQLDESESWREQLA
# Experiment: pull-down; cells stimulated for 1 h with pre-clustered EphB4-Fc (1 ug/ml final) before lysis in LBA buffer; EphB4 pull-down as described in ref. 69; immunoblot with anti-ephrinB2; LN229 cells with scrambled control or ZEB2 shRNA at 21% or 1% O2 for 18 h; only the target purified
row,binding,Substance
1,binds,ephrinB2 (murine glioma cells) (from UniProt P52800 29-336) (ligand)
2,binds,ephrinB2 (human glioblastoma cells) (from UniProt P52799 28-333) (ligand)
